From the supplement of paper PMC10849652
The list shows a part of the results.

By UniProt entry, the sequences of proteins in these tests, tags left out. Where a name states a change or a piece, a line headed by the entry shows the natural chain unless it says otherwise.
UniProt Q9UH92: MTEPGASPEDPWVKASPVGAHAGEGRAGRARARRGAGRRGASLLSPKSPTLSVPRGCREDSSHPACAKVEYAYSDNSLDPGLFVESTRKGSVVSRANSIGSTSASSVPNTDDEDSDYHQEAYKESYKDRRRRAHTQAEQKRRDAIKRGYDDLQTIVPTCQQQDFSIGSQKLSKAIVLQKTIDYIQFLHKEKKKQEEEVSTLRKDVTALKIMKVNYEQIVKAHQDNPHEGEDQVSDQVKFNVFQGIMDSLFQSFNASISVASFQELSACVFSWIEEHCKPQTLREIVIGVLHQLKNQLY
UniProt P22033: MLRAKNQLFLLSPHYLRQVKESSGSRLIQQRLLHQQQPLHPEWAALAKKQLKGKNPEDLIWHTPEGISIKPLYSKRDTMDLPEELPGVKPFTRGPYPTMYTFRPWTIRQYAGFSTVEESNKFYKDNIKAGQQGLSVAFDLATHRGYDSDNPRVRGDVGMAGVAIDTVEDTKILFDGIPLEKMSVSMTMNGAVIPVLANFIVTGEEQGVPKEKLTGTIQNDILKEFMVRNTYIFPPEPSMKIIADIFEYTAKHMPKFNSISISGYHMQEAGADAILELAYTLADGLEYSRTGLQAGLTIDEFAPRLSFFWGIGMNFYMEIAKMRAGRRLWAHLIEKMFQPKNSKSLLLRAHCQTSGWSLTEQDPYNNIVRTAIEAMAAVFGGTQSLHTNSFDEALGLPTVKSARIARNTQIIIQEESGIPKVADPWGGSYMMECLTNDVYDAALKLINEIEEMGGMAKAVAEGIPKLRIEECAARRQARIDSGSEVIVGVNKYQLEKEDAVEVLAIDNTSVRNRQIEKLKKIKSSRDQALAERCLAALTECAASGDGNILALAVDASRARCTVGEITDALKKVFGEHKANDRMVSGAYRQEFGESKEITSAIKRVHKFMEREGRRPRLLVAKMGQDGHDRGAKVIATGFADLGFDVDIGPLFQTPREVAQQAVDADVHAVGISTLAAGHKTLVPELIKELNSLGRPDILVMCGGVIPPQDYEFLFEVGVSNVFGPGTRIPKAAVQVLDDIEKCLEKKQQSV
UniProt P49959: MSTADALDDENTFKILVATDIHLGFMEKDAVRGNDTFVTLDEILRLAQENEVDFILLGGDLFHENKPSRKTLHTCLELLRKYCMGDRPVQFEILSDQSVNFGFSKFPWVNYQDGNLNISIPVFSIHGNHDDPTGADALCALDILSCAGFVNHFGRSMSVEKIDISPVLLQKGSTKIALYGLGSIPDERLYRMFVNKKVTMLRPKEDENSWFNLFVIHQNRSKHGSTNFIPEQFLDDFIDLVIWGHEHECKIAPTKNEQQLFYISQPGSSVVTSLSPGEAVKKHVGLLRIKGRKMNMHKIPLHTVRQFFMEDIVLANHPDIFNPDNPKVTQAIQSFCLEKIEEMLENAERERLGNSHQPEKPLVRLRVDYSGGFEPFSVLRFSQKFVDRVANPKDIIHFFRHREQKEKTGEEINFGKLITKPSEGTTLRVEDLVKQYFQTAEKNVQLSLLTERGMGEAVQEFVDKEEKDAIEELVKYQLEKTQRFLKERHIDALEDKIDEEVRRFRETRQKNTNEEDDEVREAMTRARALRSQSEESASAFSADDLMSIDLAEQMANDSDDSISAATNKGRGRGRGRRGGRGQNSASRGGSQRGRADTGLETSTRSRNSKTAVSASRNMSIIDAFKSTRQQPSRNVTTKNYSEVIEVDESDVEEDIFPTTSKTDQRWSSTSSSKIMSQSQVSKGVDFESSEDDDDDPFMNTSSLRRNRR
UniProt Q9H081: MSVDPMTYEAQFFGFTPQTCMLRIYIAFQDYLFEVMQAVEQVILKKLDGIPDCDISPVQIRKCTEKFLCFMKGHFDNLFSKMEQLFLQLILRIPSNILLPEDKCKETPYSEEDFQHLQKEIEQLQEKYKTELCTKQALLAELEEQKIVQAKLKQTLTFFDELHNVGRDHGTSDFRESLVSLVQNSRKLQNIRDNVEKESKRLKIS
UniProt Q9H8M7: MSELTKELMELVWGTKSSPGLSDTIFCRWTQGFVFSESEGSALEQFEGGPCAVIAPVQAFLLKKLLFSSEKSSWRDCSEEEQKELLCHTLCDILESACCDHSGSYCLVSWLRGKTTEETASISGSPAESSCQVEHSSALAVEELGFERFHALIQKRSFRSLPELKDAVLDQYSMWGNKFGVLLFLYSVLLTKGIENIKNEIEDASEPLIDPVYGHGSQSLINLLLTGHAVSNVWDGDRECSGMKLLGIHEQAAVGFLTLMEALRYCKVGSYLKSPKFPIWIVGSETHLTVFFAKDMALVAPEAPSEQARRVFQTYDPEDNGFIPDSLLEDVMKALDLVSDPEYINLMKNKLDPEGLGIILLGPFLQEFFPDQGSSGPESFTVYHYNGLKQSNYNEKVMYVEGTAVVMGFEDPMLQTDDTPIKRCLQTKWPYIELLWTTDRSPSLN
UniProt Q9BUB5: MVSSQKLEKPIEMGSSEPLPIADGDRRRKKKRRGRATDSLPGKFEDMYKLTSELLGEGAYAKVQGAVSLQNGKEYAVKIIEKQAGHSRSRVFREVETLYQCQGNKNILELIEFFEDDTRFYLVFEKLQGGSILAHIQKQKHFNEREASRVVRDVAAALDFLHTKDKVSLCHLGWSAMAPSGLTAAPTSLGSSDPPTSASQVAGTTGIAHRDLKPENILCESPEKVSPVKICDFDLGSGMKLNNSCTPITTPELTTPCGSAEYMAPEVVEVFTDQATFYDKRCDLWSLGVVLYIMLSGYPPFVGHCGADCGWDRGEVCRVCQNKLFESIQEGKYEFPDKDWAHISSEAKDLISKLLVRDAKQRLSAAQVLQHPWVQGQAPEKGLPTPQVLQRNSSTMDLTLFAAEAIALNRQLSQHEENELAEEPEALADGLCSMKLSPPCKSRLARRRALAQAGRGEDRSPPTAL
UniProt Q5XKP0: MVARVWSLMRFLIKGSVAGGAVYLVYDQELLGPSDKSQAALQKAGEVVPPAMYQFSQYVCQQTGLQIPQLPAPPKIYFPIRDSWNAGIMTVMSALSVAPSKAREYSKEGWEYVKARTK
UniProt Q6WCQ1: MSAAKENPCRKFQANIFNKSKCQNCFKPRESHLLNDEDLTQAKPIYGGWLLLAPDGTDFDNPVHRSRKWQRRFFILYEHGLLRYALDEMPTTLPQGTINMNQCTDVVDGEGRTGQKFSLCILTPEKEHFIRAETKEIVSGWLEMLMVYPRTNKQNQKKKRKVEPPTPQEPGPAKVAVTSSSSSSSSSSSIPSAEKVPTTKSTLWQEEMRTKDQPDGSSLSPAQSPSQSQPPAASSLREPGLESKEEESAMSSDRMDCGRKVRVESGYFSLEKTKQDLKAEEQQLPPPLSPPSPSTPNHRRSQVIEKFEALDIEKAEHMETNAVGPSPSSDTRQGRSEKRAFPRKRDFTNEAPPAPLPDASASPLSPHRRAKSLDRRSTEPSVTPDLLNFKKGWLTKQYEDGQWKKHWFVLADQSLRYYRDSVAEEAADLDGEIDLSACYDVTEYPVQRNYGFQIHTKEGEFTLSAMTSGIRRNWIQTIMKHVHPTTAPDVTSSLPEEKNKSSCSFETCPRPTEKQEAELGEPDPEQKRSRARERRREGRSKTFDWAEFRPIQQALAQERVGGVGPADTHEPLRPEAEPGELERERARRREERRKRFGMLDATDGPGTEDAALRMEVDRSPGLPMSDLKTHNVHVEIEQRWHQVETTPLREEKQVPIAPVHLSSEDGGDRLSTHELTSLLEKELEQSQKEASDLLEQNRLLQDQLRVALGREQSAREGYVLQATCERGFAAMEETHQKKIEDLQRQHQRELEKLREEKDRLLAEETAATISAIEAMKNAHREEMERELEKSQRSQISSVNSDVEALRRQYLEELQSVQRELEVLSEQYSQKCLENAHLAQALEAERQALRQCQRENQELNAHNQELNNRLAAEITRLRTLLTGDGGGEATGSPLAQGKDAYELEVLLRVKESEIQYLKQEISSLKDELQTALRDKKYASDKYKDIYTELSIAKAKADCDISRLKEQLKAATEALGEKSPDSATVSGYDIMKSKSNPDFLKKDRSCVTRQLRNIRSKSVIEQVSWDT
UniProt Q9NQG6: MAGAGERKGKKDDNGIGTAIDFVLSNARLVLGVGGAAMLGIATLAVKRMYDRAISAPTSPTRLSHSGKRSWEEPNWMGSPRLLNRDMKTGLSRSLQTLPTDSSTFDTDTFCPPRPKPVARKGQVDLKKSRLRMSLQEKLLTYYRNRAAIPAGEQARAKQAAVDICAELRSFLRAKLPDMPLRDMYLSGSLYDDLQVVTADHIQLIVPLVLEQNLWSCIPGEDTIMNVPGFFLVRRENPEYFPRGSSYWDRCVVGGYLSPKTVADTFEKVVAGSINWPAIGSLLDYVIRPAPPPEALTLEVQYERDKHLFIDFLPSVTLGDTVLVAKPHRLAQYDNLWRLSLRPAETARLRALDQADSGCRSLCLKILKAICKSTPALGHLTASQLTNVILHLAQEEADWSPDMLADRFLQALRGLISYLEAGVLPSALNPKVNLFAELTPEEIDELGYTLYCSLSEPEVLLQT
UniProt Q9NPA3, whole entry, looked up: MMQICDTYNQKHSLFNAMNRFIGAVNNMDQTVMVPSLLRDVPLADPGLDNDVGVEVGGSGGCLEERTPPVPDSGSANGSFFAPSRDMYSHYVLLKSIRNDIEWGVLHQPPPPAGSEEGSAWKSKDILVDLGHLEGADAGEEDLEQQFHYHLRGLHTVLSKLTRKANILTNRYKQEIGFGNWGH
UniProt Q9NZW5: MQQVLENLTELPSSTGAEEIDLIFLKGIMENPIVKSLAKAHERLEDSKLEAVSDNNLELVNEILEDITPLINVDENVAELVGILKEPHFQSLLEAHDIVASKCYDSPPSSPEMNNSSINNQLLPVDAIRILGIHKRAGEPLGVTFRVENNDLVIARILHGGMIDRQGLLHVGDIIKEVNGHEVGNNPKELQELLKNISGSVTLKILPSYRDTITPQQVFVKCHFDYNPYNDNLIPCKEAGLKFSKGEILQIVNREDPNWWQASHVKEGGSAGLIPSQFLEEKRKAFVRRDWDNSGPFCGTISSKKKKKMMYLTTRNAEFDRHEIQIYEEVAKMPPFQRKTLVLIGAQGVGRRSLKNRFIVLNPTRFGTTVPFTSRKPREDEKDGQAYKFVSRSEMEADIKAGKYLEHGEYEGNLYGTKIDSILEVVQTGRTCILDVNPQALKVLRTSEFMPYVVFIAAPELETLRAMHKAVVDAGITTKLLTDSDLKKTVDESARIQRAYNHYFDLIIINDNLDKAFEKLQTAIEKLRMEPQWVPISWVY
UniProt Q8N5J2: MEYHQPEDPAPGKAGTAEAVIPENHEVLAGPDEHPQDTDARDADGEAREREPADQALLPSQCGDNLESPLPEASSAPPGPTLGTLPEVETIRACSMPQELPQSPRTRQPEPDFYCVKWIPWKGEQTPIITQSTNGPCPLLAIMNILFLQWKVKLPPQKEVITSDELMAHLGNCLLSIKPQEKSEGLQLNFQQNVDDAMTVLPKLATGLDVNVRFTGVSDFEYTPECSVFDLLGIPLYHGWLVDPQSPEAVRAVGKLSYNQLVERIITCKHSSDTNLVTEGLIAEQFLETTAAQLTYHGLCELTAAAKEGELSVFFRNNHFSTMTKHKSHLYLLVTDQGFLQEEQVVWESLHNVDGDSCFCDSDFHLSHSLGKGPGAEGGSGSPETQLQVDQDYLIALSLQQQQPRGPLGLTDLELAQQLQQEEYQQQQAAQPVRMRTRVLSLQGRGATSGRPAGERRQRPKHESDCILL
UniProt P10620: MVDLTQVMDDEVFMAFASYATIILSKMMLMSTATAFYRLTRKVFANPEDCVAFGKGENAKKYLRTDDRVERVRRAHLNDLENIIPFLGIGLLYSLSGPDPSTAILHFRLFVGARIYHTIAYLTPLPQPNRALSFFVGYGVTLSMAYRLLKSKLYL
UniProt Q9BWT6: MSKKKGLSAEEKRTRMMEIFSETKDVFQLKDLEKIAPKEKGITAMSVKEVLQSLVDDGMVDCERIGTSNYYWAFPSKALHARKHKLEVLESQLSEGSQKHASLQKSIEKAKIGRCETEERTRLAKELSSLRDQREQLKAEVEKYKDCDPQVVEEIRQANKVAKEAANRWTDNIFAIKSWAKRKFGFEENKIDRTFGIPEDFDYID
UniProt Q96EY8: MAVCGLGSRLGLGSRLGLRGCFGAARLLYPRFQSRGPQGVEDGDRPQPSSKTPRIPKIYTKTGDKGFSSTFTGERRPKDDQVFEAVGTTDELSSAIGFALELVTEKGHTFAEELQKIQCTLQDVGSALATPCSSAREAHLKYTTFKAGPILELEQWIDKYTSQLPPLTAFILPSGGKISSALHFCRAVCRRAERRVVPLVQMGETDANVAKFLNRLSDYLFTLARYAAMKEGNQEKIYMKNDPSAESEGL

Columns and labels:
Experiment in all cases: log2 fold change, soluble protein after heating vs DMSO (PISA); higher = thermal stabilisation; K562 lysate, 10 uM; active = over 0.2 and 3.5 SD of the protein, either way, in both replicates (recomputed)
erlotinib = compound: C#Cc1cccc(Nc2ncnc3cc(OCCOC)c(OCCOC)cc23)c1 [erlotinib]
How it was run: (§1)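 K562 pellets were dounce-homogenised in PBS pH 7.4 containing 1 mM MgCl2, and the crude extract, at 1 mg/mL protein, was exposed to 10 μM compound for 30 min. Aliquots were heated for 3 min across 48°C-58°C, pooled, brought to 0.5% NP-40 at 4°C and spun at 21,000xg for 90 min, with the supernatant taken as soluble protein. TMTpro 16plex LC-MS/MS with equalised channel sums quantified that protein. Values are log-two fold changes in thermal stability relative to solvent controls, taken from duplicates.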

[1] = compound: C/C(=N\NC(=O)C1=CC(=CC=C1)S(=O)(=O)N2CCOCC2)/C3=C(C=CC(=C3)Cl)O
How it was run: as §1

[2] = compound: C1=CC(=CC=C1C2=NC3=C(N2)C=C(C=C3)C(=O)N)OC4=CC=C(C=C4)Cl
How it was run: as §1

[3] = compound: C1=CC2=C(C=CC(=C2)/C=C\3/C(=O)NC(=NCC4=CC=CS4)S3)N=C1
How it was run: as §1

[4] = compound: C1=CC2=NC=CN=C2C=C1/C=C/3\C(=O)NC(=O)S3
How it was run: as §1

[5] = compound: C1=CC=C(C=C1)C2=NC(=C(N2)C3=CC=NC=C3)C4=CC(=C(C=C4)Cl)O
How it was run: as §1

[6] = compound: C1=CC=C2C(=C1)C3=NNC4=CC=CC(=C43)C2=O
How it was run: as §1

[7] = compound: C1CCN(C1)C(=O)NC2=CC=CC(=C2)NC3=NC=C(C(=N3)NCCC4=CN=CN4)Br
How it was run: as §1

[8] = compound: C1CN(CCC1(CC2=CC=C(C=C2)Cl)N)C3=NC=NC4=C3C=CN4
How it was run: as §1

IRAK-1-4 Inhibitor I = compound: C1COCCN1CCN2C3=CC=CC=C3N=C2NC(=O)C4=CC(=CC=C4)[N+](=O)[O-] [IRAK-1-4 Inhibitor I]
How it was run: as §1

Measured: log2 fold change

MLX (UniProt Q9UH92)
inactive: erlotinib 0.091 | [1] -0.03 | [2] 0.003 | [3] -0.016 | [4] -0.029 | [5] 0.03 | [6] -0.096 | [7] -0.011 | [8] 0.023 | IRAK-1-4 Inhibitor I 0.021

MMUT (UniProt P22033)
inactive: erlotinib -0.018 | [1] 0.017 | [2] -0.003 | [3] 0.038 | [4] -0.045 | [5] -0.037 | [6] -0.009 | [7] -0.04 | [8] 0.052 | IRAK-1-4 Inhibitor I -0.017

MON1A (UniProt Q86VX9)
inactive: erlotinib -0.008 | [1] -0.296 | [2] 0.05 | [3] -0.103 | [4] 0.014 | [5] -0.077 | [6] -0.023 | [7] 0.14 | [8] -0.046 | IRAK-1-4 Inhibitor I 0.018

MRPL13 (UniProt Q9BYD1)
inactive: erlotinib -0.022 | [1] -0.008 | [2] -0.02 | [3] -0.044 | [4] -0.027 | [5] 0.02 | [6] -0.021 | [7] -0.119 | [8] -0.072 | IRAK-1-4 Inhibitor I 0.033

MRE11 isoform 3 (UniProt P49959)
inactive: erlotinib -0.021 | [1] -0.036 | [2] 0.027 | [3] 0.024 | [4] -0.027 | [5] 0.004 | [6] -0.025 | [7] 0.001 | [8] 0.004 | IRAK-1-4 Inhibitor I -0.016

Taken from the listing (two entries):
MMUT (UniProt P22033)
inactive: erlotinib -0.018 | [1] 0.017 | [2] -0.003 | [3] 0.038 | [4] -0.045 | [5] -0.037 | [6] -0.009 | [7] -0.04 | [8] 0.052 | IRAK-1-4 Inhibitor I -0.017

MON1A (UniProt Q86VX9)
inactive: erlotinib -0.008 | [1] -0.296 | [2] 0.05 | [3] -0.103 | [4] 0.014 | [5] -0.077 | [6] -0.023 | [7] 0.14 | [8] -0.046 | IRAK-1-4 Inhibitor I 0.018

(cont.)

MIB1 (UniProt Q86YT6)
inactive: erlotinib 0.049 | [1] 0.029 | [2] -0.043 | [3] -0.043 | [4] 0.002 | [5] 0.025 | [6] -0.046 | [7] 0.011 | [8] 0.081 | IRAK-1-4 Inhibitor I -0.004

MIS12 (UniProt Q9H081)
inactive: erlotinib -0.009 | [1] -0.022 | [2] 0.006 | [3] -0.001 | [4] -0.01 | [5] -0.011 | [6] 0.019 | [7] -0.038 | [8] 0.031 | IRAK-1-4 Inhibitor I 0.007

MICAL1 isoform 4 (UniProt Q8TDZ2)
inactive: erlotinib 0.025 | [1] 0.022 | [2] -0.044 | [3] 0.021 | [4] -0.07 | [5] -0.031 | [6] -0.013 | [7] -0.018 | [8] 0.036 | IRAK-1-4 Inhibitor I 0.037

MINDY3 (UniProt Q9H8M7)
inactive: erlotinib 0.011 | [1] 0.04 | [2] -0.097 | [3] -0.027 | [4] -0.026 | [5] 0.02 | [6] 0.035 | [7] -0.001 | [8] 0.02 | IRAK-1-4 Inhibitor I 0.002

MKNK1 (UniProt Q9BUB5)
inactive: erlotinib 0.079 | [1] 0.01 | [2] 0.017 | [3] 0.104 | [4] 0.004 | [5] -0.006 | [6] -0.014 | [7] 0.014 | [8] 0.068 | IRAK-1-4 Inhibitor I 0.048

MIEF1 (UniProt L0R8F8)
inactive: erlotinib 0.039 | [1] -0.077 | [2] 0.05 | [3] 0.024 | [4] -0.042 | [5] 0.028 | [6] 0.017 | [7] 0.017 | [8] 0.008 | IRAK-1-4 Inhibitor I 0.028

MICU2 (UniProt Q8IYU8)
inactive: erlotinib 0.025 | [1] 0.04 | [2] -0.008 | [3] -0.024 | [4] -0.011 | [5] 0.061 | [6] -0.094 | [7] -0.037 | [8] 0.038 | IRAK-1-4 Inhibitor I -0.044

MICOS13 (UniProt Q5XKP0)
inactive: erlotinib 0.084 | [1] 0.085 | [2] -0.13 | [3] 0.004 | [4] -0.002 | [5] -0.011 | [6] 0.047 | [7] 0.013 | [8] 0.015 | IRAK-1-4 Inhibitor I -0.008

MPRIP isoform 2 (UniProt Q6WCQ1)
inactive: erlotinib -0.001 | [1] 0.03 | [2] -0.005 | [3] 0.017 | [4] -0.016 | [5] 0.008 | [6] -0.03 | [7] 0.029 | [8] -0.016 | IRAK-1-4 Inhibitor I 0.004

MRPL1 (UniProt Q9BYD6)
inactive: erlotinib 0.003 | [1] 0.064 | [2] -0.056 | [3] -0.013 | [4] 0.002 | [5] 0.003 | [6] -0.016 | [7] 0.049 | [8] -0.071 | IRAK-1-4 Inhibitor I -0.013

MRI1 (UniProt Q9BV20)
inactive: erlotinib -0.005 | [1] -0.008 | [2] 0.014 | [3] 0.015 | [4] 0.008 | [5] -0.013 | [6] -0.002 | [7] 0.015 | [8] -0.007 | IRAK-1-4 Inhibitor I 0.008

MIEF1 (UniProt Q9NQG6)
inactive: erlotinib 0.049 | [1] 0.001 | [2] -0.02 | [3] 0.024 | [4] 0.025 | [5] 0.038 | [6] -0.02 | [7] 0.007 | [8] 0.112 | IRAK-1-4 Inhibitor I 0.02

MORC2 (UniProt Q9Y6X9)
inactive: erlotinib 0.039 | [1] -0.05 | [2] -0.002 | [3] 0.015 | [4] -0.016 | [5] -0.001 | [6] -0.033 | [7] 0.006 | [8] -0.023 | IRAK-1-4 Inhibitor I 0.034

MID1IP1 (UniProt Q9NPA3)
inactive: erlotinib -0.055 | [1] 0.008 | [2] 0.032 | [3] 0.021 | [4] 0.347 | [5] -0.008 | [6] -0.025 | [7] 0.02 | [8] 0.061 | IRAK-1-4 Inhibitor I -0.027

MPP6 (UniProt Q9NZW5)
inactive: erlotinib -0.011 | [1] 0.005 | [2] -0.031 | [3] -0.021 | [4] 0 | [5] -0.004 | [6] -0.016 | [7] -0.031 | [8] 0.005 | IRAK-1-4 Inhibitor I -0.01

MRPL15 (UniProt Q9P015)
inactive: erlotinib 0.037 | [1] -0.16 | [2] 0.051 | [3] -0.026 | [4] -0.055 | [5] -0.017 | [6] 0.004 | [7] -0.023 | [8] -0.016 | IRAK-1-4 Inhibitor I 0.034

MINDY1 isoform 3 (UniProt Q8N5J2)
inactive: erlotinib 0.052 | [1] -0.006 | [2] 0.048 | [3] -0.031 | [4] 0.245 | [5] 0.053 | [6] 0.056 | [7] -0.082 | [8] -0.066 | IRAK-1-4 Inhibitor I -0.02

MGST1 (UniProt P10620)
inactive: erlotinib -0.041 | [1] -0.068 | [2] 0.016 | [3] -0.051 | [4] 0.024 | [5] -0.031 | [6] -0.036 | [7] -0.07 | [8] 0.089 | IRAK-1-4 Inhibitor I 0.067

MND1 (UniProt Q9BWT6)
inactive: erlotinib -0.035 | [1] -0.018 | [2] -0.002 | [3] -0.013 | [4] -0.008 | [5] 0.019 | [6] 0.062 | [7] 0.012 | [8] 0.005 | IRAK-1-4 Inhibitor I -0.01

MGME1 (UniProt Q9BQP7)
inactive: erlotinib 0 | [1] 0 | [2] 0.033 | [3] 0.017 | [4] -0.012 | [5] -0.007 | [6] -0.032 | [7] 0.006 | [8] -0.015 | IRAK-1-4 Inhibitor I 0.023

MRPL20 (UniProt Q9BYC9)
inactive: erlotinib 0.046 | [1] 0.014 | [2] -0.092 | [3] -0.044 | [4] 0.057 | [5] -0.033 | [6] 0.11 | [7] 0.017 | [8] -0.096 | IRAK-1-4 Inhibitor I -0.013

MGA (UniProt Q8IWI9)
inactive: erlotinib 0.024 | [1] 0.018 | [2] 0.048 | [3] 0.055 | [4] 0.005 | [5] -0.008 | [6] -0.177 | [7] -0.092 | [8] 0.065 | IRAK-1-4 Inhibitor I 0.001

MLH1 (UniProt P40692)
inactive: erlotinib 0.018 | [1] 0.021 | [2] -0.011 | [3] 0.012 | [4] -0.079 | [5] 0.025 | [6] -0.019 | [7] -0.037 | [8] 0.015 | IRAK-1-4 Inhibitor I -0.002

MMAB (UniProt Q96EY8)
inactive: erlotinib -0.006 | [1] 0.047 | [2] 0.007 | [3] 0.025 | [4] -0.022 | [5] 0.011 | [6] -0.035 | [7] 0.002 | [8] 0.03 | IRAK-1-4 Inhibitor I 0.033
